Experimental data published in US5118705A, “Water soluble salts of purpuromycin and pharmaceutical formulations thereof” (Gruppo Lepetit S.p.A., priority 1990, dated 1992).

Assays:
[1] = system: Candida albicans SKF 2270; assay: Activity against Candida strains, two-fold dilution method; format: cell-based; details: SKF2270, 20 h, comparative tests, antibacterial agents
Description: (§1) This set of experiments included also one strain each of two other Candida species, Candida tropicalis and Candida kruzei. The M.I.C. were determined by the two-fold dilution method in buffered (0.01 M phosphate buffer, pH 7.4) yeast nitrogen base medium (Difco) supplemented with 1.5 g/liter asparagine in microtiter trays. Inocula were approximately 10^4 colony forming units/ml. Incubation was for 20 h at 30° C. Purpuromycin was dissolved in DMSO and added to the cultures as above.

[2] = system: Candida albicans ATCC 10231; assay: as above; format: cell-based; details: ATCC10231, 20 h, comparative tests, antibacterial agents
Description: as §1

CCC[C@@H]1C[C@@H](C(=O)N[C@@H]([C@H]2O[C@H](SC)[C@H](O)[C@@H](O)[C@H]2O)[C@H](C)Cl)N(C)C1 [clindamycin]
MIC [1]: > 128 µg/mL | MIC [2]: > 128 µg/mL
